Record: PubChem BioAssay AID1259272 (Sanger Institute, 2017)
Here is an unselected part of 794 reagents tested. 7 of all reagents (0.88%) count as active. 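Essential calls reflect knock-down without drug only, not synergy with drugs; drug exposure length not given.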 Viability is capped at 1. Not all columns of the deposit are shown. Not stated in the record: the amount of reagent, the time to read-out.

Purpose: 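Kinase knock-downs lethal to colorectal cancer cells, with or without anchor drugs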 (primary screen)
System: SW1116 human colorectal cancer cells
Knock-down reagent: siRNA pool against human genes
Treatment: anchor drugs BYL719 (1 µM), cetuximab (5 µg/ml) or trametinib (10 nM), or DMSO vehicle; exposure length not given
Measurement: 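Cell survival as a fraction of wells given a non-targeting pool, averaged over replicates; robust z-score without drug; synergy score for each of BYL719, cetuximab and trametinib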
Reading the numbers: viability z-score, no drug: higher = more cells remaining; strongly negative means essential gene; viability, no drug: higher = more viable cells; synergy score with BYL719 and synergy score with cetuximab: higher = stronger synthetic-lethal synergy with the drug
Call rule: 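a robust z-score under -3 with siRNA and no drug marks the gene essential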
Meaning of the calls: active = essential (knock-down alone); inactive = no change

Target gene | viability z-score, no drug | viability, no drug (fraction of control) | synergy score with BYL719 | synergy score with cetuximab | Call
PIK3C2B (GeneID 5287) | 0.463 | 0.96 | -0.0893 | -0.0565 | inactive
MAP3K13 (GeneID 9175) | 0.842 | 1 | -0.0244 | -0.0148 | inactive
CLK2 (GeneID 1196) | -0.281 | 0.88 | 0.044 | -0.0818 | inactive
MAP3K19 (GeneID 80122) | -0.7 | 0.836 | -0.105 | 0.0668 | inactive
DGKD (GeneID 8527) | 0.842 | 1 | 0.0359 | 0.0429 | inactive
TEX14 (GeneID 56155) | 0.842 | 1 | -0.0788 | -0.0504 | inactive
PDK2 (GeneID 5164) | 0.0381 | 0.914 | 0.0277 | -0.0788 | inactive
CHD9 (GeneID 80205) | 0.842 | 1 | -0.0714 | 0.0972 | inactive
PINK1 (GeneID 65018) | 0.658 | 0.98 | 0.0622 | 0.0842 | inactive
TP53BP1 (GeneID 7158) | 0.842 | 1 | 0.0667 | 0.109 | inactive
PRKG2 (GeneID 5593) | -1.23 | 0.78 | -0.145 | -0.0893 | inactive
ACVRL1 (GeneID 94) | 0.842 | 1 | 0.00907 | -0.032 | inactive
EFNB3 (GeneID 1949) | -1.79 | 0.72 | -0.0441 | -0.0609 | inactive
COMMD3 (GeneID 23412) | 0.761 | 0.991 | 0.147 | 0.0834 | inactive
PSKH2 (GeneID 85481) | 0.0423 | 0.915 | -0.00961 | 0.0732 | inactive
IP6K1 (GeneID 9807) | 0.842 | 1 | -0.0788 | -0.0757 | inactive
STK32A (GeneID 202374) | 0.139 | 0.925 | -0.0815 | -0.145 | inactive
ROCK2 (GeneID 9475) | 0.824 | 0.998 | -0.0805 | -0.0774 | inactive
HK1 (GeneID 3098) | -0.214 | 0.888 | -0.18 | -0.0737 | inactive
NEK3 (GeneID 4752) | -3.65 | 0.521 | -0.32 | -0.23 | active
PRKCQ (GeneID 5588) | -0.533 | 0.854 | -0.112 | 0.00429 | inactive
AMER1 (GeneID 139285) | 0.633 | 0.978 | 0.0775 | -0.00897 | inactive
NME5 (GeneID 8382) | 0.352 | 0.948 | -0.00482 | 0.0502 | inactive
FGFR1 (GeneID 2260) | 0.842 | 1 | -0.0277 | -0.000961 | inactive
NIM1K (GeneID 167359) | 0.527 | 0.967 | -0.0126 | 0.0456 | inactive
PDXK (GeneID 8566) | 0.574 | 0.972 | -0.105 | -0.0719 | inactive
GRK4 (GeneID 2868) | -0.141 | 0.895 | 0.0148 | -0.00892 | inactive
RIPK1 (GeneID 8737) | 0.71 | 0.986 | -0.0426 | 0.0281 | inactive
PIP4K2C (GeneID 79837) | 0.0794 | 0.919 | -0.0704 | -0.149 | inactive
PRP4K (GeneID 8899) | -0.111 | 0.899 | -0.031 | 0.145 | inactive
TBX3 (GeneID 6926) | 0.842 | 1 | -0.076 | -0.0618 | inactive
MAP2K7 (GeneID 5609) | -0.814 | 0.824 | -0.113 | 0.00315 | inactive
PACSIN1 (GeneID 29993) | 0.842 | 1 | 0.0583 | 0.0677 | inactive
TNNI3K (GeneID 51086) | -0.447 | 0.863 | -0.205 | -0.193 | inactive
CDC42BPA (GeneID 8476) | -1.31 | 0.771 | -0.138 | -0.145 | inactive
EIF2AK4 (GeneID 440275) | 0.842 | 1 | -0.00216 | -0.0364 | inactive
BMAL1 (GeneID 406) | -2.65 | 0.628 | -0.0843 | -0.0844 | inactive
TAF1 (GeneID 6872) | 0.479 | 0.961 | 0.0178 | 0.0261 | inactive
PDK3 (GeneID 5165) | 0.842 | 1 | 0.0145 | 0.181 | inactive
TSSK4 (GeneID 283629) | 0.842 | 1 | -0.0191 | 0.0135 | inactive
CSNK1A1 (GeneID 1452) | -0.735 | 0.832 | -0.101 | -0.0995 | inactive
RIOK1 (GeneID 83732) | -0.247 | 0.884 | -0.0561 | 0.0165 | inactive
WHR1 (GeneID 8859) | 0.842 | 1 | -0.0352 | -0.044 | inactive
MAP3K11 (GeneID 4296) | 0.143 | 0.926 | -0.133 | -0.0699 | inactive
PANK4 (GeneID 55229) | -2.03 | 0.694 | -0.18 | -0.0637 | inactive
SGK1 (GeneID 6446) | 0.842 | 1 | -0.0788 | 0.0618 | inactive
CKM (GeneID 1158) | 0.842 | 1 | -0.0514 | 0.0888 | inactive
EPHA6 (GeneID 285220) | -2.25 | 0.671 | -0.144 | -0.0905 | inactive
GATA3 (GeneID 2625) | 0.229 | 0.935 | -0.139 | 0.0421 | inactive
GALK1 (GeneID 2584) | -0.459 | 0.861 | 0.131 | -0.00572 | inactive

Records listed so far with an active call (1):
Target gene | viability z-score, no drug | viability, no drug (fraction of control) | synergy score with BYL719 | synergy score with cetuximab | Call
NEK3 (GeneID 4752) | -3.65 | 0.521 | -0.32 | -0.23 | active
